# In the supplement of paper PMC11006884:
# Sequences of proteins named here, by UniProt entry; tags and fusion partners are left off. A change or cut given only in a name is not applied to a line headed by its entry.
# UniProt Q15102: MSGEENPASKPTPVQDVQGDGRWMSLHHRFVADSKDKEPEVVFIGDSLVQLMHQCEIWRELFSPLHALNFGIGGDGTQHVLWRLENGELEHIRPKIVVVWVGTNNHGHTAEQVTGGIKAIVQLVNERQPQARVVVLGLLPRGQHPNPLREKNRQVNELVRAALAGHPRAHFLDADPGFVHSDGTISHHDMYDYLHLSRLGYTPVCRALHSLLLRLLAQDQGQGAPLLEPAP
# UniProt Q15058: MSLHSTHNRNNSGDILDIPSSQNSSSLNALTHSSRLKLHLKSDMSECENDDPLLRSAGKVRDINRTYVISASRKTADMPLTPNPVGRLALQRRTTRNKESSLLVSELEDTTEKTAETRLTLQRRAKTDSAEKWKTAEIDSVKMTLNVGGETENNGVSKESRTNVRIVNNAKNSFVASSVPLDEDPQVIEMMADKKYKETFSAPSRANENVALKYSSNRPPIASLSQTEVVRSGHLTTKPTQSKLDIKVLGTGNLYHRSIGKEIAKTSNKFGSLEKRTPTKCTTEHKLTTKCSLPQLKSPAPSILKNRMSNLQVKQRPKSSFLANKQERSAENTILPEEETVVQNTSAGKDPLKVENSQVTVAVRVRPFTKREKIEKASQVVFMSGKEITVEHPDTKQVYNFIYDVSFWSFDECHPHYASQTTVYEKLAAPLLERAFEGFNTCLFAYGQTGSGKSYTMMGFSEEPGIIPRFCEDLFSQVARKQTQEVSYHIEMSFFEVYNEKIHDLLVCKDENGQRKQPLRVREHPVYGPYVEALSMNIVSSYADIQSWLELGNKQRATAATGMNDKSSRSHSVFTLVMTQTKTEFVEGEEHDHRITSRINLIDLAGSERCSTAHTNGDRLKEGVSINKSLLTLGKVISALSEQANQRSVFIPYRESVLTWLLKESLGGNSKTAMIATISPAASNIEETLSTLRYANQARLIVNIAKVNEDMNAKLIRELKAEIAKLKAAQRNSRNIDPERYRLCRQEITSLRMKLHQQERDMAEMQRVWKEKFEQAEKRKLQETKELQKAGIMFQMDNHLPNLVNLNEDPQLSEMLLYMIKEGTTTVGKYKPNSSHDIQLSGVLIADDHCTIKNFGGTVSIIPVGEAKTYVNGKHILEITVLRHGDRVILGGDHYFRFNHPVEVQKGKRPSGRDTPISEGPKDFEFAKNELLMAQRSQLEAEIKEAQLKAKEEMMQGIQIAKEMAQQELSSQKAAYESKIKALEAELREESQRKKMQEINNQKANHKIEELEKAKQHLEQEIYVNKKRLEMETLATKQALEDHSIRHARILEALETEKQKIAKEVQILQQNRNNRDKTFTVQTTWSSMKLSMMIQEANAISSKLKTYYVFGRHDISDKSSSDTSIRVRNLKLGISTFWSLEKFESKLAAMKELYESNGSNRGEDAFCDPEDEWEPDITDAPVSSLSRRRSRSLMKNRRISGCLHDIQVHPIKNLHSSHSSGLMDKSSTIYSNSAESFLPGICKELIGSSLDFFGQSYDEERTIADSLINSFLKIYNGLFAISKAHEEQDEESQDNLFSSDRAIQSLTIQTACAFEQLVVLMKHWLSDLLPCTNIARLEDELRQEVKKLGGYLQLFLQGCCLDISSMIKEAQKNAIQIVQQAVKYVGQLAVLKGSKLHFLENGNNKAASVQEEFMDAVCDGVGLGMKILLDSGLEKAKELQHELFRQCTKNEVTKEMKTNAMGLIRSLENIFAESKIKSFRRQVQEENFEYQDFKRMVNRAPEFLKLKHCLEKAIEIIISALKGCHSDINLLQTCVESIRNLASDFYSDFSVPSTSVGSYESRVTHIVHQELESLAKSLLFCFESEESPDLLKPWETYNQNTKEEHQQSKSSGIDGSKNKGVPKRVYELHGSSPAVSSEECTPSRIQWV
# UniProt Q15048: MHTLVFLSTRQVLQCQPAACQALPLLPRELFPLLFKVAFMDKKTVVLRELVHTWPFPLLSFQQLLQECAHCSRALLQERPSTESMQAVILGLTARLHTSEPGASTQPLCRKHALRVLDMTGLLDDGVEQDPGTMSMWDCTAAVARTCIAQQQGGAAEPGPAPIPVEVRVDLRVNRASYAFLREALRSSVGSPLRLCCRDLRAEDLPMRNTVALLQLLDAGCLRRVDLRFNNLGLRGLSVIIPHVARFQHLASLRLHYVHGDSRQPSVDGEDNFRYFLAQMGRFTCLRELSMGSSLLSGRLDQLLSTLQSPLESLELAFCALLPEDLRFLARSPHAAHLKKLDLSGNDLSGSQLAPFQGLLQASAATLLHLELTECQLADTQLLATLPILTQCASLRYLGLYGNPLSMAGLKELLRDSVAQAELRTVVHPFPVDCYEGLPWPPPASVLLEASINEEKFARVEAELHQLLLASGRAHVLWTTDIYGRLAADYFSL
# UniProt Q15042: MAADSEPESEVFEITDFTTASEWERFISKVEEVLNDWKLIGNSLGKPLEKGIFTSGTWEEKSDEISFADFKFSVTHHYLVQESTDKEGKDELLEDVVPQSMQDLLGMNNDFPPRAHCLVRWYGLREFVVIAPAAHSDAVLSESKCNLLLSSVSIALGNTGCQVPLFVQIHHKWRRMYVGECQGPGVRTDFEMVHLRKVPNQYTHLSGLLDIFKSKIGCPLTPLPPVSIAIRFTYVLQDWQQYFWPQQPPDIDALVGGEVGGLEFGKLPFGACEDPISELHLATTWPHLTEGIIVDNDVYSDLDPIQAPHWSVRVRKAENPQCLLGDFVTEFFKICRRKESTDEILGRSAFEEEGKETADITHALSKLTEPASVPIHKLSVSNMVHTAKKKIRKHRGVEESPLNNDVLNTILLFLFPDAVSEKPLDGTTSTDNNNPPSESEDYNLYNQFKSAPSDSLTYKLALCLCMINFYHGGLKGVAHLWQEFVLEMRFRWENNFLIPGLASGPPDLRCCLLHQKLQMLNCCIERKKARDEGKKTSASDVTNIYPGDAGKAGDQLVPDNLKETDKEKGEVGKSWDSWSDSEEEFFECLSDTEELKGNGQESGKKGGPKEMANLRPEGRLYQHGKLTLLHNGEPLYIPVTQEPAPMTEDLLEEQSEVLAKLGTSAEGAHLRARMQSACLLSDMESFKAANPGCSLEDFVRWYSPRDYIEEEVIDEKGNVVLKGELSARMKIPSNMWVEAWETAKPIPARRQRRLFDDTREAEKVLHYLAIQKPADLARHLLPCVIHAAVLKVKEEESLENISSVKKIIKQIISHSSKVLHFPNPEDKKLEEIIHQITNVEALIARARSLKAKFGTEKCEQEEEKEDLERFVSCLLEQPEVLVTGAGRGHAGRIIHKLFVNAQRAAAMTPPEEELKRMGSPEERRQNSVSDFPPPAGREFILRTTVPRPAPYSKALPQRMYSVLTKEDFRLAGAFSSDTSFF
# UniProt Q16352: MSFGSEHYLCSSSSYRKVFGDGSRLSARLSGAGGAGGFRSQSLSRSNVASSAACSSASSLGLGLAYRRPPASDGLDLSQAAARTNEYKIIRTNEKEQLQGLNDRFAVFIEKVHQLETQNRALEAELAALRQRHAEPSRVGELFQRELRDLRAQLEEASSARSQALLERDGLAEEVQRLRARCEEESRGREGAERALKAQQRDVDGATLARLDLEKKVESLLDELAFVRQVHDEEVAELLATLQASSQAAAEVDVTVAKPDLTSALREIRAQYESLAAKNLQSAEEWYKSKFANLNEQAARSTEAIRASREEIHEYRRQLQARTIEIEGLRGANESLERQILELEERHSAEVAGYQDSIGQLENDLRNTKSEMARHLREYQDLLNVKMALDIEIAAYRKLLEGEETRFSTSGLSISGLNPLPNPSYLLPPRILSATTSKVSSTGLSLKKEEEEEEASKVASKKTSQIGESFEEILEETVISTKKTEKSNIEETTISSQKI
# UniProt Q15813: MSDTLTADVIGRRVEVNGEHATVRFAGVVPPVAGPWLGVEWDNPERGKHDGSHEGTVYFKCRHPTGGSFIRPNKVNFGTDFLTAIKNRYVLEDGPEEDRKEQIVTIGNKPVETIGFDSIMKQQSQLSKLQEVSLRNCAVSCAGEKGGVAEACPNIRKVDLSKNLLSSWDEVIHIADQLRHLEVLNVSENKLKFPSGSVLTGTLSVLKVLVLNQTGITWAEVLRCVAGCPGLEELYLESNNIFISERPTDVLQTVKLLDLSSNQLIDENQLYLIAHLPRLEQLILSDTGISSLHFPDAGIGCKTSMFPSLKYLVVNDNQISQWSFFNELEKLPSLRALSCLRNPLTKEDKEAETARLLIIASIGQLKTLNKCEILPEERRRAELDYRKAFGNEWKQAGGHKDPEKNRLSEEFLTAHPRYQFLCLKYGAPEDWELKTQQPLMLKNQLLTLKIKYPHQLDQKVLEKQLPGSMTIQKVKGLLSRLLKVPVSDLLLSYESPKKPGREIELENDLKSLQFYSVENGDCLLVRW
# UniProt Q15286: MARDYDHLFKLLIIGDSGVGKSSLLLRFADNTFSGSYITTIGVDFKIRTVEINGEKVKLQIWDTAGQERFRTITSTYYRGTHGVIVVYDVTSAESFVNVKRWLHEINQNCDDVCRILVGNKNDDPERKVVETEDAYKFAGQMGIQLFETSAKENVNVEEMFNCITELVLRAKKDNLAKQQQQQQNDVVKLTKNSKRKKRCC
# UniProt Q15648, whole entry, looked up: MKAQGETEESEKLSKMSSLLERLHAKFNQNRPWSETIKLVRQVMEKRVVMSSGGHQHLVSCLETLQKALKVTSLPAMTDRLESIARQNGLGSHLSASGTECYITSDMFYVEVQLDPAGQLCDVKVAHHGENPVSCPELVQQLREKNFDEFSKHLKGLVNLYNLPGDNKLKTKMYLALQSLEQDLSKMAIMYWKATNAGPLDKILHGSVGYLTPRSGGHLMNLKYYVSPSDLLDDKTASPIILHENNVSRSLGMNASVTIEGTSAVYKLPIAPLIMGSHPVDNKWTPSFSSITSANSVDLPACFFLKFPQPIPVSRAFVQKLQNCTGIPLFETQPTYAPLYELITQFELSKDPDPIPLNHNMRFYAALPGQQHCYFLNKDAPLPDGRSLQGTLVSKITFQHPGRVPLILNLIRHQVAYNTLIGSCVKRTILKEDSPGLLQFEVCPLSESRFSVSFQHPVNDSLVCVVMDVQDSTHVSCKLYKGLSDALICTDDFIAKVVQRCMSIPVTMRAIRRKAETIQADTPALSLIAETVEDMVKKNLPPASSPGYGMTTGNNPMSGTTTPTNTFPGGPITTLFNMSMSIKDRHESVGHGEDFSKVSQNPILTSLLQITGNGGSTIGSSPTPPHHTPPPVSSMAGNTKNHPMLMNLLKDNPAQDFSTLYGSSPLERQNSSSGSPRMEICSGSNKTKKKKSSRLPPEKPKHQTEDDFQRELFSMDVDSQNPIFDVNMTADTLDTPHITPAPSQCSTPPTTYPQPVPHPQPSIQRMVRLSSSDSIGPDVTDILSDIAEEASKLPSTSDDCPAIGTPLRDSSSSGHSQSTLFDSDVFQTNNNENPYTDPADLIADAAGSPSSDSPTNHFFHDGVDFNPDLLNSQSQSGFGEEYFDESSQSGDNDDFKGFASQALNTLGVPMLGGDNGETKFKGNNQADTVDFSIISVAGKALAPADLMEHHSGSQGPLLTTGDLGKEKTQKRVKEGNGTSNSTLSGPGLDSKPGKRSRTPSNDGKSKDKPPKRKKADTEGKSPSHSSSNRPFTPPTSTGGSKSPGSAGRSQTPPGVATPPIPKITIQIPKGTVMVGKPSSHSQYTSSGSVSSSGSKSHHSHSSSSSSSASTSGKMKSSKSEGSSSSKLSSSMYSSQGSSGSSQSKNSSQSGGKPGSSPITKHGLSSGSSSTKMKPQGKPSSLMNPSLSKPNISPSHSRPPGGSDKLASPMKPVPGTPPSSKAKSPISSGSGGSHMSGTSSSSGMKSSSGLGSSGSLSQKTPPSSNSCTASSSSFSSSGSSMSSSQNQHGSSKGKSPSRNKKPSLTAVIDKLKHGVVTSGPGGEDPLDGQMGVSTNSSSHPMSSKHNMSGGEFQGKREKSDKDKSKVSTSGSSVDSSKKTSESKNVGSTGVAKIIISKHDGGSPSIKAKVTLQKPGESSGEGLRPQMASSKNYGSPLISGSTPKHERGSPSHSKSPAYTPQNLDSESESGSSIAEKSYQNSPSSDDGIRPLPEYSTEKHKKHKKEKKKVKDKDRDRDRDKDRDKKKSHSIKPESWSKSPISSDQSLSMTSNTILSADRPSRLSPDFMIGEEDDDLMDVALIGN
# UniProt Q53RE8: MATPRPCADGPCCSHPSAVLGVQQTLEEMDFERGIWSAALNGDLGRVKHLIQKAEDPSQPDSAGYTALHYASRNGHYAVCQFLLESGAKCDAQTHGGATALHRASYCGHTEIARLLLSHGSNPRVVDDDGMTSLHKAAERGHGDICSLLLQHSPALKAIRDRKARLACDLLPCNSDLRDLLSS
# Shown are results outside the selection of targets with a hit, which stands elsewhere. The data scatter; read single values as rough. The entries are a selection whose mix differs from that of the whole data set.
# Compound: COC(=O)/C=C/c1ccccc1 [methyl cinnamate]
# Experiment: log2 ratio of iodoacetamide-alkyne labeling of the cysteine site, DMSO over compound (competition); higher = stronger covalent engagement of the cysteine by the compound, active = 1 or more
# Settings: 500 µM; treatment time 1 h; system: HEK293T cell lysate
# Procedure, shortened: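 Three replicates, each with duplicate channels, were prepared from HEK293T lysate (2 mg/mL) treated with vehicle or electrophile at 500 µM for 1 h at ambient temperature. Iodoacetamide alkyne was then applied for 1 h, and samples were clicked to sCIP-TMT reagents, pooled, trypsin-digested overnight at 37 °C, enriched on streptavidin, acid-eluted and analysed on Orbitrap Eclipse LC-MS/MS with FAIMS, with FragPipe quantification. The log2 competition ratio per cysteine is the mean control-channel divided by the mean compound-channel reporter intensity. Cysteines quantified in only one replicate were left out.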
row,Target,log2 ratio of iodoacetamide-alkyne labeling
1,TYSND1 C77 (UniProt Q2T9J0),inactive: 0.096
2,SEC23A C432 (UniProt Q15436),inactive: 0.414
3,UniProt Q16513_C131,inactive: 0.326
4,PCBP2 C109 (UniProt Q15366),inactive: 0.242
5,PAFAH1B3 C55 (UniProt Q15102),inactive: -0.0918
6,PDCD2 C125 (UniProt Q16342),inactive: -0.017
7,RABEP1 C536 (UniProt Q15276),inactive: 0.12
8,PPA1 C242 (UniProt Q15181),inactive: 0.0976
9,PDS5A C327 (UniProt Q29RF7),inactive: 0.184
10,R3HDM1 C304 (UniProt Q15032),inactive: -0.117
11,KIF14 C610 (UniProt Q15058),inactive: 0.353
12,LRRC14 C71 (UniProt Q15048),inactive: 0.451
13,PDCD4 C275 (UniProt Q53EL6),inactive: 0.162
14,PDK3 C41 (UniProt Q15120),inactive: 0.377
15,TAF12 C143 (UniProt Q16514),inactive: 0.213
16,PCM1 C957 (UniProt Q15154),inactive: 0.424
17,CDC37 C336 (UniProt Q16543),inactive: 0.217
18,UniProt Q15042_C873,inactive: 0.0505
19,UniProt Q16352_C10,inactive: 0.111

row,Target,log2 ratio of iodoacetamide-alkyne labeling
1,TBCE C371 (UniProt Q15813),inactive: 0.389
2,UniProt Q15149_C530,inactive: 0.243
3,UAP1L1 C332 (UniProt Q3KQV9),inactive: -0.0332
4,UniProt Q15286_C163,inactive: 0.183
5,SURF2 C127 (UniProt Q15527),inactive: 0.0632
6,PDS5A C583 (UniProt Q29RF7),inactive: 0.265
7,PCBP2 C158 (UniProt Q15366),inactive: 0.182
8,EIF4H C85 (UniProt Q15056),inactive: -0.132
9,UniProt Q15046_C496,inactive: 0.185
10,MED1 C800 (UniProt Q15648),inactive: -0.19
11,TBC1D10B C590 (UniProt Q4KMP7),inactive: 0.102
12,INF2 C971 (UniProt Q27J81),inactive: 0.179
13,TRIP11 C212 (UniProt Q15643),inactive: 0.0893
14,UniProt Q4ADV7_C182,inactive: -0.176
15,ANKRD39 C173 (UniProt Q53RE8),inactive: 0.0271
16,MAP7D1 C328 (UniProt Q3KQU3),inactive: 0.141
17,LRRFIP1 C805 (UniProt Q32MZ4),inactive: 0.427
18,RRS1 C52 (UniProt Q15050),inactive: 0.0753
19,RASA2 C314 (UniProt Q15283),inactive: 0.211

# Fetched one by one from the list above:
row,Target,log2 ratio of iodoacetamide-alkyne labeling
11,TBC1D10B C590 (UniProt Q4KMP7),inactive: 0.102
18,RRS1 C52 (UniProt Q15050),inactive: 0.0753
